# PubChem BioAssay AID1053208, Peter MacCallum Cancer Centre, 2014
# Screen: 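Synthetic lethal interactions between gene loss and doxorubicin in osteosarcoma cells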 (primary screen)
# Cell system: mouse osteosarcoma cells, early-passage culture from an engineered mouse model of fibroblastic bone tumour
# Reagents: siRNA pool against mouse genes, 40 nM
# Timing: about 120 h (48 h before drug, then 72 h with drug)
# Conditions: doxorubicin 100 nM for 72 h, roughly 30-40% inhibitory dose
# Measurement: 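Luminescent ATP signal taken as viability with or without 100 nM doxorubicin for 72 h; mean of two wells set against non-targeting siRNA and turned into robust z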
# Reading the numbers: viability z-score with doxorubicin and doxorubicin viability vs non-targeting: higher = more viable cells under doxorubicin; viability z-score without drug: higher = more viable cells with knock-down alone; z-score of drug to no-drug ratio: higher = less drug sensitisation by knock-down
# Hit rule: 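Called active if knock-down leaves viability unchanged without drug (z within -2 to 2) but lowers it with doxorubicin (z at or under -2)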
# The deposit covers about 17,000 reagents; this is a part drawn at random. Of all reagents, 788 (4.7%) are marked active. 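Calls rest on z-score classes alone; an extra cut-off of viability at most 70% of control was not applied to them.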 Reagents against one gene are numbered here.
target gene,reagent,combined z-score class,viability z-score with doxorubicin,viability z-score without drug,z-score of drug to no-drug ratio,doxorubicin viability vs non-targeting,Outcome
Ovol2 (GeneID 107586),1,no change with or without drug,0.67,1.52,-0.22,1,inactive
Epha3 (GeneID 13837),1,no change with or without drug,-1.12,-1.35,-0.11,0.84,inactive
Cdca3 (GeneID 14793),1,no change with or without drug,-0.22,0,-0.11,0.92,inactive
Cdk2ap2 (GeneID 52004),1,no change with or without drug,0.79,0.34,0.67,1.01,inactive
Aldh1a3 (GeneID 56847),1,no change with or without drug,-1.12,0,-1.12,0.84,inactive
Cxcr2 (GeneID 12765),1,no change with or without drug,0.9,-0.34,1.35,1.02,inactive
Hsdl2 (GeneID 72479),1,no change with or without drug,0.34,0.67,0,0.97,inactive
Pdpn (GeneID 14726),1,no change with or without drug,0.67,-0.17,0.9,1,inactive
Gpr151 (GeneID 240239),1,no change with or without drug,-0.45,-0.84,0.22,0.9,inactive
D630044L22Rik (GeneID 240054),1,no change with or without drug,0,-0.17,0.22,0.94,inactive
B230317F23Rik (GeneID 320383),1,no change with or without drug,0.79,0,0.9,1.01,inactive
Kifc5b (GeneID 16580),1,no change with or without drug,-1.12,-0.34,-0.9,0.84,inactive
Kifc5b (GeneID 16580),2,no change with or without drug,-0.56,-0.84,0.11,0.89,inactive
Dhcr24 (GeneID 74754),1,no change with or without drug,1.57,-0.84,2.47,1.08,inactive
Capsl (GeneID 75568),1,no change with or without drug,0.56,-0.34,0.9,0.99,inactive
Krtap19-4 (GeneID 170654),1,no change with or without drug,-0.11,0.84,-0.56,0.93,inactive
Acvr1b (GeneID 11479),1,no change with or without drug,-1.57,0.17,-1.69,0.8,inactive
Ak2 (GeneID 11637),1,no change with or without drug,-0.45,-0.84,0.22,0.9,inactive
Gng7 (GeneID 14708),1,no change with or without drug,0.9,-1.18,2.02,1.02,inactive
Pcyox1 (GeneID 66881),1,high cell count without drug only,1.91,2.02,0.67,1.11,inactive
Chrnb1 (GeneID 11443),1,no change with or without drug,1.12,0.67,0.79,1.04,inactive
Thumpd3 (GeneID 14911),1,no change with or without drug,1.57,-0.17,1.91,1.08,inactive
Brs3 (GeneID 12209),1,no change with or without drug,0,-0.17,0.22,0.94,inactive
Gm5115 (GeneID 330602),1,no change with or without drug,-0.22,0.67,-0.56,0.92,inactive
Adamts7 (GeneID 108153),1,no change with or without drug,0.22,1.18,-0.45,0.96,inactive
Mapkbp1 (GeneID 26390),1,no change with or without drug,0.56,0.51,0.34,0.99,inactive
Zcchc3 (GeneID 67917),1,no change with or without drug,1.12,1.52,0.22,1.04,inactive
Morc2a (GeneID 74522),1,no change with or without drug,1.57,0.67,1.24,1.08,inactive
Rigi (GeneID 230073),1,no change with or without drug,-0.45,0.67,-0.79,0.9,inactive
Zbbx (GeneID 213234),1,no change with or without drug,0.67,-0.34,1.12,1,inactive
RANBP6,1,high cell count with doxorubicin only,2.59,-0.51,3.26,1.17,inactive
Usp38 (GeneID 74841),1,no change with or without drug,1.12,0.51,0.9,1.04,inactive
Schip1 (GeneID 30953),1,no change with or without drug,-0.11,1.52,-1.01,0.93,inactive

Targets listed so far whose gene name starts with K or k (3):
target gene,reagent,combined z-score class,viability z-score with doxorubicin,viability z-score without drug,z-score of drug to no-drug ratio,doxorubicin viability vs non-targeting,Outcome
Kifc5b (GeneID 16580),1,no change with or without drug,-1.12,-0.34,-0.9,0.84,inactive
Kifc5b (GeneID 16580),2,no change with or without drug,-0.56,-0.84,0.11,0.89,inactive
Krtap19-4 (GeneID 170654),1,no change with or without drug,-0.11,0.84,-0.56,0.93,inactive

Continued.
target gene,reagent,combined z-score class,viability z-score with doxorubicin,viability z-score without drug,z-score of drug to no-drug ratio,doxorubicin viability vs non-targeting,Outcome
H2-DMa (GeneID 14998),1,no change with or without drug,0.67,-0.17,0.9,1,inactive
Nacc2 (GeneID 67991),1,no change with or without drug,-0.9,-0.84,-0.22,0.86,inactive
Pdha2 (GeneID 18598),1,no change with or without drug,0.22,-0.17,0.45,0.96,inactive
Pcdhga10 (GeneID 93722),1,low cell count with doxorubicin only,-3.37,-1.18,-2.81,0.64,active
Tmem9b (GeneID 56786),1,no change with or without drug,-0.9,-0.84,-0.22,0.86,inactive
Slfn9 (GeneID 237886),1,no change with or without drug,0.22,-0.17,0.45,0.96,inactive
Pim1 (GeneID 18712),1,high cell count without drug only,0.67,3.2,-1.12,1,inactive
Gstp3 (GeneID 225884),1,no change with or without drug,-0.9,-1.85,0.45,0.86,inactive
Rpgrip1l (GeneID 244585),1,no change with or without drug,0.67,1.18,0,1,inactive
Sec22c (GeneID 215474),1,no change with or without drug,0.22,1.52,-0.67,0.96,inactive
Angptl1 (GeneID 72713),1,no change with or without drug,-0.79,-0.51,-0.34,0.87,inactive
Zfp934 (GeneID 77117),1,no change with or without drug,-0.22,-0.84,0.45,0.92,inactive
Atn1 (GeneID 13498),1,no change with or without drug,0,-0.51,0.45,0.94,inactive
Cyb5a (GeneID 109672),1,no change with or without drug,0.56,-1.18,1.57,0.99,inactive
Alg3 (GeneID 208624),1,no change with or without drug,0.45,1.18,-0.22,0.98,inactive
Pop4 (GeneID 66161),1,no change with or without drug,0.9,0.51,0.67,1.02,inactive
Hand1 (GeneID 15110),1,no change with or without drug,-1.24,0.17,-1.35,0.83,inactive
